This assay has as its system mice. The assay can be described thus: 55° C. warm-water tail withdrawal (tail-flick) assay. The class given is in vivo, mouse. To be noted: intraperitoneal dose 10 mg/kg; AUC not further defined. The protocol: Antinociceptive effect was tested in a mouse tail-withdrawal (“tail-flick,” Aldrich et al. 2009) assay in which the tail of a restrained mouse is exposed to water at 55° C. […] Durations shorter than the maximum are reported as a percentage of the time limit. This tail-flick test (also known as the 55° C. warm-water tail withdrawal assay) is an industry acceptable, nonclinical model for assessing the efficacy of analgesics in treating acute pain. To test placebo effect, FDKP (TECHNOSPHERE®) powder (0.5 mg) without any peptide was used in the study. Each animal is tested for baseline tail-withdrawal latency prior to drug administration. Latency to withdraw the tail was subsequently measured in 10 minutes post-drug administration intervals as indicated. A maximum response time of 15 seconds was utilized to prevent tissue damage. Data reported as percent antinociception, as calculated by the following equation: % antinociception is equal to 100 times (test latency minus baseline latency) divided by (15 minus baseline latency).
The tetrapetide, (D)Phe-(D)Phe-(D)Nle-(D)Arg-NH2 (SEQ ID NO: 2, Compound 2) was administered to mice by intraperitoneal (i.p.) injection (3 mg/kg) in a saline solution, and by pulmonary insufflation of a dry powder formulation containing FDKP at various doses, 0.25 mg, 0.125 mg, 0.013 mg, 1.25 μg and 0.13 μg. […]

This note sets out measurements from patent US10258664B2, “Methods and compositions for treating pain” (MannKind Corporation, priority 2011, dated 2019).

In the case of `CN1CC[C@]23c4c5ccc(O)c4O[C@H]2[C@@H](O)C=C[C@H]3[C@H]1C5` [morphine, reference compound], the AUC is 6795.
